Binding data for 1 molecule are collected here from publication PMC8384468.

These are yes or no findings as the source states them, for the method shown. Tags and fused reporters may be left off the sequences shown.

The target in this test is T1, Mycobacterium smegmatis mycobacterial membrane protein large 3 (MmpL3) transporter, full length (M. smegmatis), A0QP27.
T1 chain: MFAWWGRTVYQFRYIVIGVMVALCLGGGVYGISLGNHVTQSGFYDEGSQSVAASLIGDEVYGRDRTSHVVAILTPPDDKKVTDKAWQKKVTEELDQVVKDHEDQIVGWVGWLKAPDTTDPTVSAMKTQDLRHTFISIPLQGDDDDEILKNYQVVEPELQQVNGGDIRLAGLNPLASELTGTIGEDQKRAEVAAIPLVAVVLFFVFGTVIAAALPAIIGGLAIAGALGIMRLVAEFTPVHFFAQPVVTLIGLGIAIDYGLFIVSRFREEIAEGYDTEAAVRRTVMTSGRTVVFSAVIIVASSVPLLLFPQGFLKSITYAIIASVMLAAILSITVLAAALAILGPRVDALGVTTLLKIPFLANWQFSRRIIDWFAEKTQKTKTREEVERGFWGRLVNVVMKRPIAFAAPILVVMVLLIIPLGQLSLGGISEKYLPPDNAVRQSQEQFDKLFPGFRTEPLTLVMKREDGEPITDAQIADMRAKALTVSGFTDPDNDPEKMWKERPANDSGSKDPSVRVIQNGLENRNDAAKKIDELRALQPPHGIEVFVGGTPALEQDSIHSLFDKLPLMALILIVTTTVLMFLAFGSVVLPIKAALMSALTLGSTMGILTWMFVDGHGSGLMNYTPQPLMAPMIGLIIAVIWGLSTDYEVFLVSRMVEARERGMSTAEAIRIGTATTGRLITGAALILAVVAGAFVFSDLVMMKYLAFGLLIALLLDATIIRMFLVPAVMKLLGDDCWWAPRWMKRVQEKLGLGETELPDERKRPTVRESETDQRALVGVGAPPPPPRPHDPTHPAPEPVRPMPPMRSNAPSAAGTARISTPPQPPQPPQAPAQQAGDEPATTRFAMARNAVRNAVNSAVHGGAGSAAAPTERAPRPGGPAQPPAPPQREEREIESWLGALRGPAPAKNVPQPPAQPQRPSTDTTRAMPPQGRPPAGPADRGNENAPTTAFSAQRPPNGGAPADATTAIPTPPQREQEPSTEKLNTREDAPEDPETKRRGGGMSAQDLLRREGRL
The test is described as follows: cryo-EM structure; single-particle cryo-EM of delipidated MmpL3 reconstituted in nanodiscs (10 uM MmpL3, 30 uM MSP cNW9, 900 uM E. coli total extract lipid); Superose 6 in 20 mM Tris-HCl (pH 7.5), 100 mM NaCl; C1 symmetry; both purified. The following applies: remark: other sources report otherwise.

B1: Mycobacterium smegmatis mycobacterial membrane protein large 3 (MmpL3) transporter, full length, A0QP27 1-1013 (protein)
chain: MFAWWGRTVYQFRYIVIGVMVALCLGGGVYGISLGNHVTQSGFYDEGSQSVAASLIGDEVYGRDRTSHVVAILTPPDDKKVTDKAWQKKVTEELDQVVKDHEDQIVGWVGWLKAPDTTDPTVSAMKTQDLRHTFISIPLQGDDDDEILKNYQVVEPELQQVNGGDIRLAGLNPLASELTGTIGEDQKRAEVAAIPLVAVVLFFVFGTVIAAALPAIIGGLAIAGALGIMRLVAEFTPVHFFAQPVVTLIGLGIAIDYGLFIVSRFREEIAEGYDTEAAVRRTVMTSGRTVVFSAVIIVASSVPLLLFPQGFLKSITYAIIASVMLAAILSITVLAAALAILGPRVDALGVTTLLKIPFLANWQFSRRIIDWFAEKTQKTKTREEVERGFWGRLVNVVMKRPIAFAAPILVVMVLLIIPLGQLSLGGISEKYLPPDNAVRQSQEQFDKLFPGFRTEPLTLVMKREDGEPITDAQIADMRAKALTVSGFTDPDNDPEKMWKERPANDSGSKDPSVRVIQNGLENRNDAAKKIDELRALQPPHGIEVFVGGTPALEQDSIHSLFDKLPLMALILIVTTTVLMFLAFGSVVLPIKAALMSALTLGSTMGILTWMFVDGHGSGLMNYTPQPLMAPMIGLIIAVIWGLSTDYEVFLVSRMVEARERGMSTAEAIRIGTATTGRLITGAALILAVVAGAFVFSDLVMMKYLAFGLLIALLLDATIIRMFLVPAVMKLLGDDCWWAPRWMKRVQEKLGLGETELPDERKRPTVRESETDQRALVGVGAPPPPPRPHDPTHPAPEPVRPMPPMRSNAPSAAGTARISTPPQPPQPPQAPAQQAGDEPATTRFAMARNAVRNAVNSAVHGGAGSAAAPTERAPRPGGPAQPPAPPQREEREIESWLGALRGPAPAKNVPQPPAQPQRPSTDTTRAMPPQGRPPAGPADRGNENAPTTAFSAQRPPNGGAPADATTAIPTPPQREQEPSTEKLNTREDAPEDPETKRRGGGMSAQDLLRREGRL
With B1, the binding entry is recorded as “no binding”.
